Counter-ions that a name gives are not always drawn. The list shows a part of the results. Most entries show no effect beyond the scatter of the controls.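 Using flow cytometry, the assay measures the median γH2AX antibody signal in S-phase Reh cells (a human leukemia line). Each score is the number of standard deviations from the median difference of paired plate sets. Candidate hits scored above 2.5; compounds scoring below -2 lowered MK1775-induced damage.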

The assay has as its system Reh. The experiment in a line: Z' of S-phase gammaH2AX difference (drug + MK1775 minus drug alone) (Z-score); higher = stronger synergistic S-phase DNA damage with MK1775. As to conditions: MK1775 concentration 400 nM; first compound 10 µM; 4 h.
On to `O=C(O)Cc1cnc[nH]1` [Imidazole-4-acetic acid hydrochloride] + C=CCn1c(=O)c2cnc(Nc3ccc(N4CCN(C)CC4)cc3)nc2n1-c1cccc(C(C)(C)O)n1 [MK1775], for which the “Z' of S-phase gammaH2AX difference (Z-score)” value is inactive: -0.216.
The figure for `COc1ccc2c(c1OC)C(=O)OC2C1c2cc3c(cc2CCN1C)OCO3` (single isomer, unassigned; (+)) [(+)-Hydrastine] + C=CCn1c(=O)c2cnc(Nc3ccc(N4CCN(C)CC4)cc3)nc2n1-c1cccc(C(C)(C)O)n1 [MK1775] is inactive: -0.0899; for `O=C1C=CC(=O)C=C1` [p-Benzoquinone] + C=CCn1c(=O)c2cnc(Nc3ccc(N4CCN(C)CC4)cc3)nc2n1-c1cccc(C(C)(C)O)n1 [MK1775] it is inactive: 0.254.
As for `O=C(O)c1cc[c]([Hg][Cl])cc1` [4-Chloromercuribenzoic acid] + C=CCn1c(=O)c2cnc(Nc3ccc(N4CCN(C)CC4)cc3)nc2n1-c1cccc(C(C)(C)O)n1 [MK1775], the “Z' of S-phase gammaH2AX difference (Z-score)” value was inactive: 1.41.
Regarding `CC1=NN=C(c2ccc(N)cc2)c2cc3c(cc2C1)OCO3` + C=CCn1c(=O)c2cnc(Nc3ccc(N4CCN(C)CC4)cc3)nc2n1-c1cccc(C(C)(C)O)n1 [MK1775], the “Z' of S-phase gammaH2AX difference (Z-score)” value was inactive: 1.16.
As to `CC(=O)[C@H]1CC[C@H]2[C@@H]3CC[C@H]4C[C@H](O)CC[C@]4(C)[C@H]3C(=O)C[C@]12C` [5alpha-Pregnan-3alpha-ol-11,20-dione] + C=CCn1c(=O)c2cnc(Nc3ccc(N4CCN(C)CC4)cc3)nc2n1-c1cccc(C(C)(C)O)n1 [MK1775], the “Z' of S-phase gammaH2AX difference (Z-score)” value was inactive: 0.456.
In the case of `CC(=O)c1c(O)c(C)c(O)c(Cc2c(O)c3c(c(C(=O)/C=C/c4ccccc4)c2O)OC(C)(C)C=C3)c1O` [Rottlerin] + C=CCn1c(=O)c2cnc(Nc3ccc(N4CCN(C)CC4)cc3)nc2n1-c1cccc(C(C)(C)O)n1 [MK1775], the “Z' of S-phase gammaH2AX difference (Z-score)” value is inactive: -0.446.
`COc1ccccc1N1CCNCC1` [1-(2-Methoxyphenyl)piperazine hydrochloride] + C=CCn1c(=O)c2cnc(Nc3ccc(N4CCN(C)CC4)cc3)nc2n1-c1cccc(C(C)(C)O)n1 [MK1775]: the “Z' of S-phase gammaH2AX difference (Z-score)” value is inactive: -0.259.
Then `C=C1C[C@@H]2[C@H](CC[C@]3(C)C(=O)CC[C@@H]23)[C@@]2(C)C=CC(=O)C=C12` [Exemestane] + C=CCn1c(=O)c2cnc(Nc3ccc(N4CCN(C)CC4)cc3)nc2n1-c1cccc(C(C)(C)O)n1 [MK1775], with inactive: 0.614.
Take `C/C(O)=C(\C#N)C(=O)Nc1cc(Br)ccc1Br` + C=CCn1c(=O)c2cnc(Nc3ccc(N4CCN(C)CC4)cc3)nc2n1-c1cccc(C(C)(C)O)n1 [MK1775]: the “Z' of S-phase gammaH2AX difference (Z-score)” value is inactive: 1.65.
Then `CCCC(C)(COC(N)=O)COC(=O)NC(C)C` (stereo not given) [Carisoprodol] + C=CCn1c(=O)c2cnc(Nc3ccc(N4CCN(C)CC4)cc3)nc2n1-c1cccc(C(C)(C)O)n1 [MK1775], with inactive: 0.117; and `C[C@@]12C(=O)OC(=O)[C@]1(C)[C@H]1CC[C@@H]2O1` [Cantharidin] + C=CCn1c(=O)c2cnc(Nc3ccc(N4CCN(C)CC4)cc3)nc2n1-c1cccc(C(C)(C)O)n1 [MK1775], with inactive: 1.5; and `C[C@]12CCC(=O)C=C1CC[C@@H]1[C@@H]2CC[C@]2(C)C(=O)CC[C@@H]12` [4-Androstene-3,17-dione] + C=CCn1c(=O)c2cnc(Nc3ccc(N4CCN(C)CC4)cc3)nc2n1-c1cccc(C(C)(C)O)n1 [MK1775], with inactive: 0.287.
Regarding `NC1CCc2cc(O)c(O)cc2C1` (stereo not given) [6,7-ADTN hydrobromide] + C=CCn1c(=O)c2cnc(Nc3ccc(N4CCN(C)CC4)cc3)nc2n1-c1cccc(C(C)(C)O)n1 [MK1775], the “Z' of S-phase gammaH2AX difference (Z-score)” value is inactive: 0.615.
`C[C@H]1OC[C@@H](C[N+](C)(C)C)O1` [(+)-cis-Dioxolane iodide] + C=CCn1c(=O)c2cnc(Nc3ccc(N4CCN(C)CC4)cc3)nc2n1-c1cccc(C(C)(C)O)n1 [MK1775]: the “Z' of S-phase gammaH2AX difference (Z-score)” value was inactive: -0.421.
Turning to `c1ccc2sc(C3(N4CCCCC4)CCCCC3)cc2c1` [BTCP hydrochloride] + C=CCn1c(=O)c2cnc(Nc3ccc(N4CCN(C)CC4)cc3)nc2n1-c1cccc(C(C)(C)O)n1 [MK1775], the “Z' of S-phase gammaH2AX difference (Z-score)” value is inactive: -0.344.
Consider `N#C/C(=C\c1ccc(O)c(O)c1)C(N)=S` [Tyrphostin 47] + C=CCn1c(=O)c2cnc(Nc3ccc(N4CCN(C)CC4)cc3)nc2n1-c1cccc(C(C)(C)O)n1 [MK1775], for which the “Z' of S-phase gammaH2AX difference (Z-score)” value is inactive: -0.39.
As for `C[N+]1(C)C2CCC1CC(OC(=O)c1c[nH]c3ccccc13)C2` (stereo not given) [3-Tropanylindole-3-carboxylate methiodide] + C=CCn1c(=O)c2cnc(Nc3ccc(N4CCN(C)CC4)cc3)nc2n1-c1cccc(C(C)(C)O)n1 [MK1775], the “Z' of S-phase gammaH2AX difference (Z-score)” value is inactive: -1.18.
With `CC(O)C(C)OC(=O)[C@@H]1C[C@@H]2c3cccc4c3c(cn4C(C)C)C[C@H]2N(C)C1` (stereo not given in full) [LY-53,857 maleate] + C=CCn1c(=O)c2cnc(Nc3ccc(N4CCN(C)CC4)cc3)nc2n1-c1cccc(C(C)(C)O)n1 [MK1775], the “Z' of S-phase gammaH2AX difference (Z-score)” value was inactive: 0.383.
For the molecule `CCCC[N+]1(C)[C@@H]2C[C@@H](OC(=O)[C@H](CO)c3ccccc3)C[C@H]1[C@@H]1O[C@@H]12` (single isomer, unassigned; (-)) [(-)-Scopolamine,n-Butyl-, bromide] + C=CCn1c(=O)c2cnc(Nc3ccc(N4CCN(C)CC4)cc3)nc2n1-c1cccc(C(C)(C)O)n1 [MK1775], the “Z' of S-phase gammaH2AX difference (Z-score)” value is inactive: 0.129.
Consider `COc1ccc(OC)c(C(O)C(C)N)c1` (stereo not given) [Methoxamine hydrochloride] + C=CCn1c(=O)c2cnc(Nc3ccc(N4CCN(C)CC4)cc3)nc2n1-c1cccc(C(C)(C)O)n1 [MK1775], for which the “Z' of S-phase gammaH2AX difference (Z-score)” value is inactive: -0.218.
Then `O=S1(=O)N(CCN2CC=C(c3c[nH]c4cc(F)ccc34)CC2)c2cccc3c2N1CCC3` + C=CCn1c(=O)c2cnc(Nc3ccc(N4CCN(C)CC4)cc3)nc2n1-c1cccc(C(C)(C)O)n1 [MK1775], with inactive: -0.197.
Regarding `N#CC(C#N)=Cc1ccc([N+](=O)[O-])c(O)c1` [Tyrphostin AG 126] + C=CCn1c(=O)c2cnc(Nc3ccc(N4CCN(C)CC4)cc3)nc2n1-c1cccc(C(C)(C)O)n1 [MK1775], the “Z' of S-phase gammaH2AX difference (Z-score)” value is inactive: -1.15.
As for `NCCCNCCSP(=O)(O)O` [Amifostine] + C=CCn1c(=O)c2cnc(Nc3ccc(N4CCN(C)CC4)cc3)nc2n1-c1cccc(C(C)(C)O)n1 [MK1775], the “Z' of S-phase gammaH2AX difference (Z-score)” value was inactive: 0.0301.
Take `Clc1ccc(N2CCN(Cc3c[nH]c4ncccc34)CC2)cc1` [L-745,870 hydrochloride] + C=CCn1c(=O)c2cnc(Nc3ccc(N4CCN(C)CC4)cc3)nc2n1-c1cccc(C(C)(C)O)n1 [MK1775]: the “Z' of S-phase gammaH2AX difference (Z-score)” value was inactive: 0.335.
Then `CCn1cnc2c(Nc3cccc(Cl)c3)nc(N[C@@H]3CCCC[C@@H]3N)nc21` + C=CCn1c(=O)c2cnc(Nc3ccc(N4CCN(C)CC4)cc3)nc2n1-c1cccc(C(C)(C)O)n1 [MK1775], with inactive: -2.08; and `NCCc1c[nH]c2ccc(C(N)=O)cc12` [5-Carboxamidotryptamine maleate] + C=CCn1c(=O)c2cnc(Nc3ccc(N4CCN(C)CC4)cc3)nc2n1-c1cccc(C(C)(C)O)n1 [MK1775], with inactive: 0.378; and `CCCCCCCCC(=O)NCc1ccc(O)c(OC)c1` [N-Vanillylnonanamide] + C=CCn1c(=O)c2cnc(Nc3ccc(N4CCN(C)CC4)cc3)nc2n1-c1cccc(C(C)(C)O)n1 [MK1775], with inactive: -2.44.
Consider `CC1=C2C[C@H]3[C@@H](CC=C4C[C@@H](O)CC[C@@]43C)[C@@H]2CC[C@]12O[C@@H]1C[C@H](C)CN[C@H]1[C@H]2C` [Cyclopamine] + C=CCn1c(=O)c2cnc(Nc3ccc(N4CCN(C)CC4)cc3)nc2n1-c1cccc(C(C)(C)O)n1 [MK1775], for which the “Z' of S-phase gammaH2AX difference (Z-score)” value was inactive: 0.137.
In the case of `CC(=O)NCCc1c[nH]c2ccccc12` [N-Acetyltryptamine] + C=CCn1c(=O)c2cnc(Nc3ccc(N4CCN(C)CC4)cc3)nc2n1-c1cccc(C(C)(C)O)n1 [MK1775], the “Z' of S-phase gammaH2AX difference (Z-score)” value was inactive: 0.1.
As for `C=CCN1CC[C@]23CCCC[C@H]2[C@H]1Cc1ccc(O)cc13` [Levallorphan tartrate] + C=CCn1c(=O)c2cnc(Nc3ccc(N4CCN(C)CC4)cc3)nc2n1-c1cccc(C(C)(C)O)n1 [MK1775], the “Z' of S-phase gammaH2AX difference (Z-score)” value is inactive: 0.878.
Take `Cc1cc2c(C(C)C)c(O)c(O)c(C=O)c2c(O)c1-c1c(C)cc2c(C(C)C)c(O)c(O)c(C=O)c2c1O` [Gossypol] + C=CCn1c(=O)c2cnc(Nc3ccc(N4CCN(C)CC4)cc3)nc2n1-c1cccc(C(C)(C)O)n1 [MK1775]: the “Z' of S-phase gammaH2AX difference (Z-score)” value is inactive: -0.0894.
The figure for `O=c1[nH]c2ccccc2n1C1CCN(CCCC(c2ccc(F)cc2)c2ccc(F)cc2)CC1` [Pimozide] + C=CCn1c(=O)c2cnc(Nc3ccc(N4CCN(C)CC4)cc3)nc2n1-c1cccc(C(C)(C)O)n1 [MK1775] is inactive: 0.752; for `CN(C)C(=O)Oc1ccc[n+](C)c1` [Pyridostigmine bromide] + C=CCn1c(=O)c2cnc(Nc3ccc(N4CCN(C)CC4)cc3)nc2n1-c1cccc(C(C)(C)O)n1 [MK1775] it is inactive: -0.403; for `CCc1c(C(=O)OC)ncc2[nH]c3cc(OC)c(OC)cc3c12` [Methyl 6,7-dimethoxy-4-ethyl-beta-carboline-3-carboxylate] + C=CCn1c(=O)c2cnc(Nc3ccc(N4CCN(C)CC4)cc3)nc2n1-c1cccc(C(C)(C)O)n1 [MK1775] it is inactive: -0.216.
